Values quoted from earlier work in US20100130598A1, “METHODS FOR INDUCING PROGRAMMED CELL DEATH” (Novogen Research Pty Ltd., priority 2008, published 2010).
At least one structure is not confirmed: it was looked up by name or label, or the drawing left a doubt.

Tested on: XIAP
Conditions: OEC cells, previous studies (Alvero et al., 2006); cited from earlier work

Oc1ccc(C2=Cc3ccc(O)cc3OC2)cc1 [phenoxodiol]
XIAP level: significantly reduced
